The text below walks through data of PubChem BioAssay AID220 (DTP/NCI, 2004).

This experiment concerns CD8F1 mice, subcutaneous mammary adenocarcinoma, T/C%. The experiment can be described thus: NCI In Vivo Anticancer Drug Screen. Data for tumor model Mammary Adenocarcinoma CD8F1 (subcutaneous) in CD8F1. Conditions: higher T/C = larger tumour. The procedure, abridged:
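Compound-treated versus vehicle-treated mice with transplantable tumors; survival or tumor size compared as T/C.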

The mark [1] stands for this setting: T/C endpoint: median tumor weight change, dose: 62.5 mg/kg/injection, schedule: Q01DX001 (ip), vehicle: saline with Tween-80.
[2] abbreviates: T/C endpoint: median tumor weight change, dose: 125.0 mg/kg/injection, schedule: Q01DX001 (ip), vehicle: saline with Tween-80.
The mark [3] stands for this setting: T/C endpoint: median tumor weight change, dose: 250.0 mg/kg/injection, schedule: Q01DX001 (ip), vehicle: saline with Tween-80.
Where [4] appears, read: T/C endpoint: median tumor weight change, dose: 2000.0 mg/kg/injection, schedule: Q01DX001 (ip), vehicle: saline.

The list shows only some results of the screen, not a fair sample: it is rich in T/C values a quarter to a half above the control, in often repeated tests (any T/C) and in doses without a T/C. Other doses and runs of a compound stand elsewhere. T/C: endpoint of the treated group in % of that of the vehicle group. Schedules are NCI's codes, read here as Q, the interval in days (D) or hours (H), X, the number of doses. Some doses have a count of surviving animals in place of a T/C: the source files T/C as zero there, which appears to mark a toxic dose or a test without result, not a measured value. Counts of survivors are from the toxicity check (mostly the fifth day) where no day follows; animals may have died later. Some entries were tested several times; the results are listed from low to high. Some molecules as drawn cover several salts, stereoisomers or complexes of the source; a dose is that of the sample tested.

As to `O=C1c2ccccc2C(=O)c2c(NCCNCCO)ccc(NCCNCCO)c21`, the survivor count by setting is: (T/C endpoint: median tumor weight (est.), dose: 62.5 mg/kg/injection, schedule: Q07DX005 (ip), vehicle: Klucel (hydroxypropylcellulose) (HPC)) 2 of 10; (T/C endpoint: median tumor weight (est.), dose: 64.0 mg/kg/injection, schedule: Q01DX001 (ip), vehicle: water) 5 of 10 on day 33; (T/C endpoint: median tumor weight (est.), dose: 64.0 mg/kg/injection, schedule: Q07DX005 (ip), vehicle: water) 3 of 10 and 6 of 10; (T/C endpoint: median tumor weight (est.), dose: 125.0 mg/kg/injection, schedule: Q07DX005 (ip), vehicle: Klucel (hydroxypropylcellulose) (HPC)) 2 of 10; (T/C endpoint: median tumor weight (est.), dose: 128.0 mg/kg/injection, schedule: Q01DX001 (ip), vehicle: water) 0 of 9 on day 33; (T/C endpoint: median tumor weight (est.), dose: 256.0 mg/kg/injection, schedule: Q01DX001 (ip), vehicle: water) 0 of 10 on day 33.

Regarding `Cc1cc2c(C(C)C)c(O)c(O)c(C=O)c2c(O)c1-c1c(C)cc2c(C(C)C)c(O)c(O)c(C=O)c2c1O`, the survivor count is, setting by setting: under setting [1], 0 of 10 on day 28; under setting [2], 0 of 10 on day 28; under setting [3], 0 of 10 on day 28; (T/C endpoint: median tumor weight change, dose: 500.0 mg/kg/injection, schedule: Q01DX001 (ip), vehicle: saline with Tween-80) 0 of 10 on day 28.

For `CCCCC[C@H](O)/C=C/[C@@H]1[C@@H](C/C=C\CCCC(=O)O)[C@@H](O)C[C@H]1O`, the survivor count (T/C endpoint: mean tumor weight, dose: 640.0 mg/kg/injection, schedule: Q01DX001 (iv), vehicle: saline) is listed as 5 of 10.

Regarding `O=C(O)CCCc1ccc(N(CCCl)CCCl)cc1`, the T/C (T/C endpoint: median tumor weight (est.), dose: 2.0 mg/kg/injection, schedule: Q07DX005 (ip), vehicle: saline with Tween-80, evaluated on day 30) is 127 % of control. The survivor count (T/C endpoint: median tumor weight (est.), dose: 64.0 mg/kg/injection, schedule: Q07DX005 (ip), vehicle: saline with Tween-80) is recorded as 6 of 10; the survivor count (T/C endpoint: median tumor weight (est.), dose: 64.0 mg/kg/injection, schedule: Q07DX005 (ip), vehicle: saline) is 6 of 10; the survivor count (T/C endpoint: median tumor weight change, dose: 128.0 mg/kg/injection, schedule: Q01DX001 (ip), vehicle: saline with Tween-80) is on record as 1 of 10 on day 27; the survivor count (T/C endpoint: median tumor weight change, dose: 256.0 mg/kg/injection, schedule: Q01DX001 (ip), vehicle: saline with Tween-80) is on record as 0 of 10 on day 27.

As for `O=C1CN(CN2CCOCC2)C(=O)CN1CN1CCOCC1`, the T/C is, setting by setting: (T/C endpoint: median tumor weight (est.), dose: 25.0 mg/kg/injection, schedule: Q07DX005 (ip), vehicle: saline, evaluated on day 30) 147 % of control; (T/C endpoint: median tumor weight (est.), dose: 100.0 mg/kg/injection, schedule: Q07DX005 (ip), vehicle: saline, evaluated on day 30) 128 % of control.

Regarding `COc1cc2c(c(OC)c1OC)-c1ccc(OC)c(=O)cc1[C@@H](NC(=O)CCl)CC2`, the survivor count is, setting by setting: (T/C endpoint: median tumor weight change, dose: 10.0 mg/kg/injection, schedule: Q01DX001 (ip), vehicle: saline with Tween-80) 4 of 10 on day 29; (T/C endpoint: median tumor weight change, dose: 20.0 mg/kg/injection, schedule: Q01DX001 (ip), vehicle: saline with Tween-80) 3 of 10 on day 29; (T/C endpoint: median tumor weight change, dose: 40.0 mg/kg/injection, schedule: Q01DX001 (ip), vehicle: saline with Tween-80) 0 of 10 on day 29.

In the case of `COc1cccc2c1C(=O)c1c(O)c3c(c(O)c1C2=O)C[C@@](O)(/C(C)=N/NC(=O)c1ccccc1)C[C@@H]3OC1CC(N)C(O)C(C)O1` (some centres not stated), the survivor count (T/C endpoint: median tumor weight (est.), dose: 12.5 mg/kg/injection, schedule: Q07DX005 (ip), vehicle: water) is 6 of 10.

Take `CCCCc1ccc2nc(NC(=O)OC)[nH]c2c1`: the T/C runs as follows: (T/C endpoint: mean tumor weight, dose: 25.0 mg/kg/injection, schedule: Q07DX006 (ip), vehicle: saline with Tween-80, evaluated on day 37) 148 % of control; (T/C endpoint: mean tumor weight, dose: 50.0 mg/kg/injection, schedule: Q07DX006 (ip), vehicle: saline with Tween-80, evaluated on day 37) 137 % of control. Also, the survivor count (T/C endpoint: median tumor weight (est.), dose: 400.0 mg/kg/injection, schedule: Q07DX005 (ip), vehicle: saline with Tween-80) was 0 of 10 on day 30.

Take `OCCCN1CCCCC1CO` (configuration not stated): the survivor count under setting [4] is on record as 1 of 10 on day 31.

With `COc1ccc(-c2csc(=[N+]3CCCCC3)s2)cc1`, the T/C is 136 % of control (T/C endpoint: median tumor weight change, dose: 16.0 mg/kg/injection, schedule: Q01DX001 (ip), vehicle: saline with Tween-80, evaluated on day 28) and 129 % of control (T/C endpoint: median tumor weight change, dose: 16.0 mg/kg/injection, schedule: Q01DX001 (ip), vehicle: water, evaluated on day 32). The survivor count is reported as 2 of 10 on day 32 (T/C endpoint: median tumor weight change, dose: 62.0 mg/kg/injection, schedule: Q01DX001 (ip), vehicle: water); 2 of 10 on day 28 under setting [1]; 0 of 10 on day 28 under setting [2]; 0 of 10 on day 32 (T/C endpoint: median tumor weight change, dose: 125.0 mg/kg/injection, schedule: Q01DX001 (ip), vehicle: water); 0 of 10 on day 28 under setting [3]; 0 of 10 on day 32 (T/C endpoint: median tumor weight change, dose: 250.0 mg/kg/injection, schedule: Q01DX001 (ip), vehicle: water).

For the compound `C[n+]1c2cc(N)ccc2cc2ccc(N)cc21`, the survivor count runs as follows: (T/C endpoint: median tumor weight (est.), dose: 25.0 mg/kg/injection, schedule: Q07DX005 (ip), vehicle: saline) 3 of 10 on day 30; (T/C endpoint: median tumor weight (est.), dose: 50.0 mg/kg/injection, schedule: Q07DX005 (ip), vehicle: saline) 0 of 10 on day 30.

As for `Nc1nc(/C=C(/O)c2ccccc2)c2ncn(C3OC(CO)C(O)C3O)c2n1` (configuration not stated), under “T/C endpoint: median tumor weight change, dose: 50.0 mg/kg/injection, schedule: Q01DX001 (ip), vehicle: distilled water + Tween-80, evaluated on day 36”, the T/C is 128 % of control. Further, the survivor count (T/C endpoint: median tumor weight change, dose: 100.0 mg/kg/injection, schedule: Q01DX001 (ip), vehicle: distilled water + Tween-80) is 4 of 10 on day 38 and 5 of 10 on day 36; the survivor count (T/C endpoint: median tumor weight change, dose: 200.0 mg/kg/injection, schedule: Q01DX001 (ip), vehicle: distilled water + Tween-80) was 0 of 10 on day 38 and 1 of 10 on day 36; the survivor count (T/C endpoint: median tumor weight change, dose: 400.0 mg/kg/injection, schedule: Q01DX001 (ip), vehicle: distilled water + Tween-80) was 0 of 10 on day 36 and 0 of 10 on day 38; the survivor count (T/C endpoint: median tumor weight change, dose: 800.0 mg/kg/injection, schedule: Q01DX001 (ip), vehicle: distilled water + Tween-80) was 0 of 10 on day 36 and 5 of 10 on day 38.

On to `N#CC(OC1OC(COC2OC(CO)C(O)C(O)C2O)C(O)C(O)C1O)c1ccccc1` (configuration not stated), for which the survivor count (T/C endpoint: median tumor weight (est.), dose: 1600.0 mg/kg/injection, schedule: Q07DX005 (ip), vehicle: water) is 6 of 10 on day 30.

As to `COc1ccc2c(NCCCCCCCCNc3c4ccccc4nc4cc(OC)ccc34)c3ccccc3nc2c1`, the T/C (T/C endpoint: median tumor weight (est.), dose: 1.87 mg/kg/injection, schedule: Q07DX005 (ip), vehicle: other, evaluated on day 30) was 135 % of control.

For the compound `CCC(C(=O)O)C(=O)O.[NH-]CC1CCCC[N-]1.[Pt+2]`, the survivor count was 0 of 10 on day 33 (T/C endpoint: median tumor weight change, dose: 250.0 mg/kg/injection, schedule: Q01DX001 (ip), vehicle: saline); 0 of 10 on day 33 (T/C endpoint: median tumor weight change, dose: 500.0 mg/kg/injection, schedule: Q01DX001 (ip), vehicle: saline); 0 of 10 on day 33 (T/C endpoint: median tumor weight change, dose: 1000.0 mg/kg/injection, schedule: Q01DX001 (ip), vehicle: saline); 1 of 10 on day 33 under setting [4].
